From patent US6673625B2, “Saccharide sensing molecules having enhanced fluorescent properties” (The Regents of the University of California, priority 1999, dated 2004)

experiment: Glucose testing of naphthalimide boronates by fluorescence; details: PBS buffer (pH 7.4)
Description: The fluorescence spectra of compounds 3 have been obtained as a function of increasing glucose concentration. […] These values range from 9% to 16% over the four compounds, with the two lower values coming from the two compounds having secondary amino groups. These low values of fractional switching are more than balanced out by the high quantum yields for compounds 3az and 3cz. As a measure of the total signal increase for each system, the product of quantum yield and fractional fluorescence increase are given in Table 1, showing that 3cz is the most promising sensor candidate of the group, as expected.
Summarized Syntheses. As the syntheses are described as a series of analogous compounds with general procedures are given below. Cyclic voltammetry was conducted using a glassy carbon working electrode, platinum counter electrode, and Ag/AgCl reference electrode and carried out in a 0.1 M solution of NBu4ClO4 in acetonitrile. Samples for fluorescence were prepared as 1.00 mM stock solutions in MeOH. A 30.0 μL aliquot of solution was then added to 3.000 mL of the appropriate solvent mixture (a combination of methanol and phosphate buffered saline—PBS). Relative quantum yields were determined by the relative output of equimolar solutions of two compounds using 3ay as a reference. Glucose additions were performed by the addition of a concentrated solution of glucose in PBS to a stirred solution of the fluorescent molecule in methanol/PBS.
General. All reactions were performed under an atmosphere of N2, followed by work-up in air. Protected boronate esters were stored under vacuum to prevent slow hydrolysis from atmospheric moisture. Unless stated otherwise, all chemicals were purchased from commercial suppliers. Anhydrous solvents from Aldrich were used for all reactions. Starting compounds known in the art such as N-n-butyl-4-chloronaphthalene-1,8-dicarboximide(1ax), 2,2-dimethylpropane-1,3-diyl[o-(bromomethyl) phenyl]boronate, were prepared by literature methods (see e.g. Daffy et al. Chem-Eur J 1998, 4, 1810-1815; de Silva et al., Chem Rev 1997, 97, 1515-1566). Samples for FT IR spectroscopy were prepared as solutions in CHCl3, and only the C═O stretches are reported here. All mass spectra were obtained using electrospray ionization (ESI/MS) with an ionization potential of 50V and a solvent system consisting of 1% acetic acid in 50/50 methanol/water. Cyclic voltammetry was conducted using a glassy carbon working electrode, platinum counter electrode, and Ag/AgCl reference electrode and carried out in a 0.1 M solution of NBu4ClO4 in acetonitrile. Samples for fluorescence measurements were prepared as 1.00 mM stock solutions in MeOH. […]

Substance	(Quantum Yield) * (Fluorescence Increase) [%]
N-n-Butyl-4-(N′-aminoethylene-N″-ArBmethylamino)naphthalene-1,8-dicarboximide [Compound 3az]	398
N-(5′-Tetrahydropyranoxypentyl)-4-(N′-methylaminoethylene-N″-ArBmethylamino)naphthalene-1,8-dicarboximide [Compound 3cy]	17
N-n-Butyl-4-(N′-methylaminoethylene-N″-ArBmethylamino)naphthalene-1,8-dicarboximide [Compound 3ay]	16
N-(5′-Tetrahydropyranoxypentyl)-4-(N′-aminoethylene-N″-ArBmethylamino)naphthalene-1,8-dicarboximide [Compound 3cz]	512
